Consider one molecule from publication PMC8504577, “Evaluation of a Clinically Relevant Drug–Drug Interaction Between Rosuvastatin and Clopidogrel and the Risk of Hepatotoxicity” (Frontiers in Pharmacology, 2021).

Molecules are shown by their SMILES. “Also recorded” adds a separate entry of the source. Read-outs that look alike come from different tables or passages of the source.

The target of data set [1] is T1, OATP1B1 (Homo sapiens, UniProt Q9Y6L6).
T1 sequence (Q9Y6L6 1-691): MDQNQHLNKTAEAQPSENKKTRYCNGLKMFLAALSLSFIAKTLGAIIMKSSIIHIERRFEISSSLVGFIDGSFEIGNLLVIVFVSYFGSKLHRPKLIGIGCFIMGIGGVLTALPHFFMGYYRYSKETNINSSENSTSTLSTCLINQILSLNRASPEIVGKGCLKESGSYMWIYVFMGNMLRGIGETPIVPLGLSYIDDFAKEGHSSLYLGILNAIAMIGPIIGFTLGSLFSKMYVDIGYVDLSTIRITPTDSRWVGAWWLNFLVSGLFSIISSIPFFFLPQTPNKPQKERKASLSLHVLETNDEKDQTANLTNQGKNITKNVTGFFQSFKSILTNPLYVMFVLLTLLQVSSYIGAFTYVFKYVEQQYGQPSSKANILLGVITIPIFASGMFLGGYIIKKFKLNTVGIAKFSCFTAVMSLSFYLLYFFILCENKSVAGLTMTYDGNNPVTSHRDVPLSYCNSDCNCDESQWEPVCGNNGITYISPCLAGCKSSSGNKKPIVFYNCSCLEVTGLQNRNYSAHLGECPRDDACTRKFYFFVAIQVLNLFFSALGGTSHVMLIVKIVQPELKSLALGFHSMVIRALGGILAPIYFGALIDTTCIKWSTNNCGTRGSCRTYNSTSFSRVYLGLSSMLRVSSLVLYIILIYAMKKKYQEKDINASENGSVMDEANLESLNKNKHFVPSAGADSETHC
The method, then:
(§1) The OATP1B1, OATP1B3, and mock cells were cultured in the DMEM medium containing 10% fetal bovine serum, penicillin–streptomycin solution (100 U/mL and 0.1 mg/ml), and 0.5 mg/ml geneticin at 37°C in the presence of 5% CO2. The cells were seeded in a 24-well plate at a density of 4×10^5 cells/well and grown for 80–90% confluence. […] After washing the cells three times with transporter buffer at 4°C, the cells were lysed with liquid nitrogen. The lysates were precipitated with methanol and centrifuged at 12,000 rpm at 4°C for 5 min. The supernatant was analyzed by LC-MS/MS. Protein concentration was determined using the Pierce® BCA Protein Assay Kit. All experiments were performed in triplicate.
(§2) Phoenix WinNonlin® 7.1 (Pharsight Corporation, Mountain View, CA, United States) was used to calculate the pharmacokinetic parameters by the noncompartmental method. IC50 values were obtained by a computer-generated nonlinear least squares fit using GraphPad Prism 8.1 (GraphPad Software, San Diego, CA, United States). Statistical analysis was performed using SPSS ver. 22.0 (IBM, Chicago, IL, United States). The results are presented as mean ± S.D., unless otherwise stated. After testing for the homogeneity of variance, statistical analysis was performed with a one-way ANOVA followed by the LSD post hoc test or unpaired Student’s t-test. A probability (p) of less than 0.05, 0.01, and 0.001 was considered to be statistically significant, highly significant, and extremely significant, respectively.

Data set [2] addresses T2, OATP1B3 (Homo sapiens, UniProt Q9NPD5).
T2 sequence (Q9NPD5 1-702): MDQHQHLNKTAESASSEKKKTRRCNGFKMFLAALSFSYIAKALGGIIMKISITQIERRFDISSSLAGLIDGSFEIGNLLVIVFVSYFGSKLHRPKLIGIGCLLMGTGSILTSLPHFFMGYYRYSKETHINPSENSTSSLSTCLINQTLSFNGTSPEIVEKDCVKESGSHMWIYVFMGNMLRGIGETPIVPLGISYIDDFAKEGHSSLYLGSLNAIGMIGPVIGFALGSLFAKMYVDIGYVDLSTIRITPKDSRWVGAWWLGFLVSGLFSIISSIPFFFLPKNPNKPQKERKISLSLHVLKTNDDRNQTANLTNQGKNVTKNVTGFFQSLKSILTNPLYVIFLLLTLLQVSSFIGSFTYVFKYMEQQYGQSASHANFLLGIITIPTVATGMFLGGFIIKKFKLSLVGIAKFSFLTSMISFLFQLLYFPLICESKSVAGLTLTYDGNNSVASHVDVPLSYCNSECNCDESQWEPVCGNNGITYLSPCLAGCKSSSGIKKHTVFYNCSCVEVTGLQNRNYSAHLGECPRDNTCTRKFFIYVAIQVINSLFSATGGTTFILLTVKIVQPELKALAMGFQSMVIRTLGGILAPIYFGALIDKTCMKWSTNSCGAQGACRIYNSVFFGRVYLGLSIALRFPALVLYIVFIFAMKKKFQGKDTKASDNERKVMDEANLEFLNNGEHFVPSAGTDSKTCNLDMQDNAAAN
The method, then:
as §1, §2

For data set [3], the system named is human primary hepatocytes. Here is the method:
Cytotoxicity was determined with MTT assay in cryopreserved human hepatocytes. Thawing and plating of cryopreserved hepatocytes were carried out according to the manufacturer’s protocol. Primary human hepatocytes at a density of 7×10^4 cells/well were cultured for 24 h after plating in 96-well collagen-coated plates. Then, the hepatocytes were treated with varying concentrations of RSV, CP, RSV plus CP, or tamoxifen and incubated for 24 or 96 h at 37°C. 11 μL of 5 mg/ml MTT was added to each well of the plate, and then the plate was incubated at 37°C for 3–4 h. After the medium was aspirated, 150 μL of DMSO was added to dissolve the formazan. The absorbance at 570 nm was measured and corrected for background absorption at 690 nm using a SpectraMax® i3 plate reader (Molecular Devices, Silicon Valley, CA, United States). AST and LDH levels in the medium of parallel processed plates were measured by commercially available assay kits. […] All experiments were performed in triplicate.
A Shimadzu LC-20AD liquid chromatography system (Shimadzu, Kyoto, Japan) and an API5000 triple quadrupole tandem mass spectrometer (Applied Biosystems/Sciex, Framingham, MA, United States) coupled with an electrospray ionization (ESI) source was used for the determination of in vitro samples. Chromatographic separation was conducted with gradient elution on a Synergi Hydro-RP column (30 × 2.0 mm, 4 μm, Phenomenex, Torrance, CA, United States). […] The mobile phase consisted of methanol (A) and water (B), both containing 0.1% (V/V) formic acid. The flow rate was 0.5 ml/min and the gradient elution was run using the following program: 0.01 min (15% A)-1.0 min (95% A), 1.5 min (95% A)-1.51 min (15% A), 2.5 min (stop).

The nature of data set [4]: Plasma pharmacokinetic study in rats. To be noted: estimated with human unbound fraction 0.06. Here is the method: For the plasma pharmacokinetic study, 16 rats were randomly assigned into four groups (n = 4, each group, groups I to IV) and received oral (p.o.) administrations as oral gavage of CP (27 mg/kg) or the same volume of vehicle control for 20 days. Then, the rats were made to fast overnight before dosing but with free access to water. On day 21, rats in group I were treated with a p.o. dose as oral gavage of CP at 27 mg/kg and a single intravenous (i.v.) dose of RSV at 5 mg/kg. Rats in group II were treated with a p.o. dose as oral gavage of vehicle control and a single i.v. dose of RSV at 5 mg/kg. Rats in group Ⅲ were treated with a p.o. dose as oral gavage of CP at 27 mg/kg and a p.o. dose as oral gavage of RSV at 5 mg/kg. Rats in group Ⅳ were treated with a p.o. dose as oral gavage of vehicle control and a p.o. dose as oral gavage of RSV at 5 mg/kg. Blood samples (0.15 ml) were collected at 0, 1, 2, 5, 15, 30, 60, 120, 180, 360, 480, 600, and 720 min after administration of the i.v. dose of the RSV group and at 0, 5, 30, 60, 120, 180, 360, 480, 600, and 720 min for the p.o. dose as oral gavage of the RSV group. After each sampling, a volume of 0.15 ml physiologic saline solutions was administered to sustain isotonic fluid balance. Plasma samples were harvested by using a centrifuge and then stored at −80°C until analysis by LC-MS/MS. […]

The conditions of data set [5]: fu×I1.
Data set [6] concerns OATP1B1. The following applies: ref Tamraz et al. (2013), cited from earlier work.
The conditions of data set [7]: ref Itkonen et al. (2015), cited from earlier work.
The target in data set [8] is T3, BCRP (Homo sapiens, UniProt Q9UNQ0).
T3 sequence (Q9UNQ0 1-655): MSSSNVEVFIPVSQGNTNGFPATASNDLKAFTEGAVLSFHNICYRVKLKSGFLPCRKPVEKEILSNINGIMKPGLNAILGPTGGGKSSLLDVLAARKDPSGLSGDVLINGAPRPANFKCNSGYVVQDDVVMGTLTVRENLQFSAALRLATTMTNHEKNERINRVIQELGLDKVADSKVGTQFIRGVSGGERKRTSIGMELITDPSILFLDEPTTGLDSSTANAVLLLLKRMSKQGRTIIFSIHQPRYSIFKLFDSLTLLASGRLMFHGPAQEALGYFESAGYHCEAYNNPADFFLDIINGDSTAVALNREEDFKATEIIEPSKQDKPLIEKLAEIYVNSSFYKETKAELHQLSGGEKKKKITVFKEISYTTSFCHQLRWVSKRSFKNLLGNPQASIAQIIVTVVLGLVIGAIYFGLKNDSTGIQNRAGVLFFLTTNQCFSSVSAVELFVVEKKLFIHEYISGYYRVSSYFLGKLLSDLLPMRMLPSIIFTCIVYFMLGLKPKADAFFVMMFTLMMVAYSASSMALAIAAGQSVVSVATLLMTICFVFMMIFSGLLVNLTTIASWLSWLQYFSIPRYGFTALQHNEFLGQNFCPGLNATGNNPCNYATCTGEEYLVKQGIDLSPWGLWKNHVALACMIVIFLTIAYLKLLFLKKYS
Nature of the data set: Inhibition of RSV transport in BCRP-expressing membrane vesicles. The arrangement: purchased GenoMembrane Co., Ltd. (Yokohama, Japan) GM0008; host or cells: Sf9 insect cells. Type of data set: biochemical. To be noted: 1 μM RSV, read-out: IC50 BCRP-mediated RSV transport. Here is the method: The vesicular transport activity was determined by the 96-well rapid filtration method in BCRP- and MRP2-expressing membrane vesicles. […] Meanwhile, 5 μL RSV (final concentration, 1 μM) and 20 μL reagent C2 were pre-incubated at 37°C for 5 min. Then, the transport was initiated by mixing them in a 50 μL reaction system and incubated for the designated time at 37°C. The transport was terminated by adding 200 μL of cold buffer B2 at 4°C. Then, the mixture was filtered using a 96-well filter plate. After washing the vesicles five times with 200 μL of cold buffer B2 at 4°C, the vesicles were lysed with 50 μL of 80% […] twice and then centrifuged at 2000 rpm/min for 2 min. Lysates were collected and then centrifuged at 12,000 rpm/min for 5 min. The supernatants were injected onto the LC-MS/MS. The same procedures were applied to AMP-containing samples except that reagent D2 was used instead of reagent C2. All experiments were performed in quadruplicate.
Statistical analysis was performed using SPSS ver. 22.0 (IBM, Chicago, IL, United States).

Where [9] appears, read: estimated assuming same unbound fraction as plasma.

The IC50 is the midpoint of a concentration-inhibition curve. On to `O=C(O)[C@H](c1ccccc1Cl)N1CCc2sccc2C1` [CPC, clopidogrel carboxylic acid], for which the “Inhibition of OATP1B1-mediated RSV transport” value in data set [1] (1 μM RSV, 0.05–50 μM) was “did not inhibit; also recorded: had no effects”. Moreover, the half-maximal inhibitory concentration (IC50) in data set [1] (read-out: IC50 OATP1B1-mediated transport of RSV, 1 μM RSV as substrate, HEK293 cells) is over 50 µM; in data set [2] (read-out: IC50 OTAP1B3, RSV as substrate), over 50 µM; in data set [6] (substrate cerivastatin, read-out: IC50 OTAP1B1 (cerivastatin, CER, as substrate)), over 100 µM; in data set [6] (substrate estrone sulfate, read-out: IC50 OTAP1B1 (estrone sulfate, ES, as substrate)), over 100 µM; in data set [8], 5.96 µM. In addition, the “Inhibition of OATP1B3-mediated RSV transport” value in data set [2] (1 μM RSV, CPC 0.05–50 μM) was “did not inhibit; also recorded: had no effects”. Also, the “Concentrations in cells and mediums” value in data set [3] (RSV plus 100 μM CP) is “remained high”. Moreover, the Free medium concentration in data set [3] (setting [9]) is 0.79 to 1.31 µM. In addition, the Unbound intracellular concentration in data set [3] (setting [9]) is 7.42 to 9.11 µM. For the same molecule, the Unbound plasma concentration in data set [4] (group I) is 3.74 µM; in data set [4] (group III), 5.05 µM. Further, the “Imax,u, unbound steady-state plasma peak concentration” value in data set [5] (75 mg CP) came to 0.443 µM; in data set [5] (300 mg CP) it was 1.914 µM. For the same molecule, the “I1, peak plasma concentration at steady state” value is 7.38 [Itkonen et al. (2015)] μM in data set [7] (75 mg CP) and 31.90 [Itkonen et al. (2015)] μM in data set [7] (300 mg CP).
